Record: PubChem BioAssay AID1508588 (Peter MacCallum Cancer Centre, 2020)
The deposit covers about 18,000 reagents; below is a part drawn at random. Of all reagents, 790 (4.4%) got an active call. 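Calls rest on a combination of fold-change classes in drug and vehicle arms, not all shown here.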

Aim: 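Knock-downs boosting vemurafenib effects on melanoma cell growth or lactate release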 (primary screen)
System: human WM266.4 melanoma cells (BRAF V600 mutant)
Reagents: siRNA pool against human genes, 40 nM
Timing: 96 h from transfection to read-out
Conditions: vemurafenib 300 nM (about IC25), added 48 h after transfection, for 48 h; comparison arm got DMSO vehicle only
Measurement: 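Ratios to non-targeting siRNA for cell gain, counted as DAPI nuclei after minus before drug and averaged over two replicates, and for absorbance-read medium lactate per cell; both binned into fold-change classes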
Direction: cell gain with vemurafenib: higher = more cell gain than with non-targeting siRNA; lactate per cell with vemurafenib: higher = more lactate made per cell
Call rule: 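Enhancement is called by pairing each knock-down's vehicle-arm and drug-arm fold-change classes for viability or glycolysis; which class combinations qualify is not given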
Calls: active = enhances vemurafenib effect; inactive = no enhancement seen

BTBD17 (BTB domain containing 17) [SID135624938] showed cell gain with vemurafenib 0.87; lactate per cell with vemurafenib 1.08; inactive.
Against MAP3K13 (mitogen-activated protein kinase kinase kinase 13) [SID56478694], the values are cell gain with vemurafenib 0.21; lactate per cell with vemurafenib 2.3; inactive.
KIAA2013 [SID134319549] scored cell gain with vemurafenib 0.35; lactate per cell with vemurafenib 1.3; inactive.
After knock-down of ST13 (ST13 Hsp70 interacting protein) [SID134321317], the screen gave cell gain with vemurafenib 0.75; lactate per cell with vemurafenib 0.79; inactive.
TCAF1 (TRPM8 channel associated factor 1) [SID135623997] gave cell gain with vemurafenib 0.34; lactate per cell with vemurafenib 0.5; inactive.
For CRYBA4 (crystallin beta A4) [SID152149715], the values are cell gain with vemurafenib 0.54; lactate per cell with vemurafenib 0.8; inactive.

In a second layout: results already given.
gene knocked down,PubChem SID,cell gain with vemurafenib,lactate per cell with vemurafenib,Outcome
TCAF1 (TRPM8 channel associated factor 1),SID135623997,0.34,0.5,inactive
CRYBA4 (crystallin beta A4),SID152149715,0.54,0.8,inactive

Additional results follow:
Knock-down of PIH1D1 (PIH1 domain containing 1) [SID135624092] came out at: cell gain with vemurafenib 0.58; lactate per cell with vemurafenib 0.88; inactive.
After knock-down of CDC37P1 (cell division cycle 37 pseudogene 1) [SID135624931] the results were cell gain with vemurafenib 1.15; lactate per cell with vemurafenib 0.84; inactive.
FKBP11 (FKBP prolyl isomerase 11) [SID134313086] showed cell gain with vemurafenib 0.61; lactate per cell with vemurafenib 0.4; inactive.
Against INO80B (INO80 complex subunit B) [SID135621849] the deposit lists cell gain with vemurafenib 0.45; lactate per cell with vemurafenib 0.75; inactive.
After knock-down of WRAP73 (WD repeat containing, antisense to TP73) [SID135622502], the screen gave cell gain with vemurafenib 0.29; lactate per cell with vemurafenib 0.92; inactive.
After knock-down of IL12RB1 (interleukin 12 receptor subunit beta 1) [SID135621471], the screen gave cell gain with vemurafenib 0.67; lactate per cell with vemurafenib 1.34; inactive.
After knock-down of MRPL50 (mitochondrial ribosomal protein L50) [SID135622516], the record shows cell gain with vemurafenib 0.32; lactate per cell with vemurafenib 1.1; inactive.
Silencing of MAPK13 (mitogen-activated protein kinase 13) [SID56478704] resulted in: cell gain with vemurafenib 0.77; lactate per cell with vemurafenib 0.48; active.
Knock-down of C19orf18 (chromosome 19 open reading frame 18) [SID135623103] resulted in: cell gain with vemurafenib 1.09; lactate per cell with vemurafenib 0.59; inactive.
With knock-down of PTH1R (parathyroid hormone 1 receptor) [SID134311148], the record shows cell gain with vemurafenib 0.29; lactate per cell with vemurafenib 0.73; inactive.
